# From the supplement of paper PMC8728848
# The list shows a part of the results.
# B1: PEB3 (Campylobacter jejuni), Q0PBL7 (protein)
# chain: MKKIITLFGACALAFSMANADVNLYGPGGPHTALKDIANKYSEKTGVKVNVNFGPQATWFEKAKKDADILFGASDQSALAIASDFGKDFNVSKIKPLYFREAIILTQKGNPLKIKGLKDLANKKVRIVVPEGAGKSNTSGTGVWEDMIGRTQDIKTIQNFRNNIVAFVPNSGSARKLFAQDQADAWITWIDWSKSNPDIGTAVAIEKDLVVYRTFNVIAKEGASKETQDFIAYLSSKEAKEIFKKYGWRE
# Columns and labels:
# Assay in all cases: glycan array binding signal (z-score within array); higher = stronger binding
# Conditions in all cases: glycan notation: IUPAC condensed, linker removed
# [1] = target: Gal3S(b1-4)[Fuc(a1-3)]Glc
# Summary of the method: (§1)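 Negative Z-scores can be read as non-binding. The Z-score is calculated within each array and then averaged across arrays of one protein sequence at different concentrations or buffers and across linkers. Arrays, 3228 in all, were curated from the Consortium for Functional Glycomics database and kept only where the protein sequence was available.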
# [2] = target: Gal3S(b1-4)[Fuc(a1-3)]Glc6S
# Summary of the method: as §1
# [3] = target: Gal3S4S(b1-4)GlcNAc
# Summary of the method: as §1
# [4] = target: Gal3S6S(b1-4)GlcNAc
# Summary of the method: as §1
# [5] = target: Gal3S6S(b1-4)GlcNAc6S
# Summary of the method: as §1
# [6] = target: Gal4S(b1-4)GlcNAc
# Summary of the method: as §1
# [7] = target: Gal4S6S(b1-4)GlcNAc
# Summary of the method: as §1
# [8] = target: Gal6S(b1-4)Glc
# Summary of the method: as §1
# [9] = target: Gal6S(b1-4)Glc6S
# Summary of the method: as §1
# [10] = target: Gal6S(b1-4)GlcNAc
# Summary of the method: as §1
# [11] = target: Gal6S(b1-4)GlcNAc6S
# Summary of the method: as §1
# [12] = target: GalNAc(a1-3)Gal
# Summary of the method: as §1
# [13] = target: GalNAc(a1-3)GalNAc
# Summary of the method: as §1
# [14] = target: GalNAc(a1-3)GalNAc(a1-3)Gal(a1-4)Gal(b1-4)GlcNAc
# Summary of the method: as §1
# [15] = target: GalNAc(b1-3)Gal
# Summary of the method: as §1
# [16] = target: GalNAc(b1-3)Gal(a1-4)Gal(b1-4)GlcNAc
# Summary of the method: as §1
# [17] = target: GalNAc(b1-3)Gal(a1-4)Gal(b1-4)GlcNAc(b1-3)Gal(b1-4)Glc
# Summary of the method: as §1
# [18] = target: GalNAc(b1-3)Gal(a1-6)Gal(b1-4)Glc
# Summary of the method: as §1
# [19] = target: GalNAc(b1-3)GalNAc
# Summary of the method: as §1
# [20] = target: GalNAc(b1-4)GlcNAc
# Summary of the method: as §1
# [21] = target: GalNAc(b1-4)GlcNAc(b1-2)Man(a1-3)[GalNAc(b1-4)GlcNAc(b1-2)Man(a1-6)]Man(b1-4)GlcNAc(b1-4)GlcNAc
# Summary of the method: as §1
# [22] = target: Glc(a1-4)Glc
# Summary of the method: as §1
# [23] = target: Glc(a1-6)Glc(a1-6)Glc
# Summary of the method: as §1
# [24] = target: Glc(b1-4)Glc
# Summary of the method: as §1
# [25] = target: Glc(b1-6)Glc
# Summary of the method: as §1
# [26] = target: GlcA(b1-3)Gal
# Summary of the method: as §1
# [27] = target: GlcA(b1-3)GlcNAc
# Summary of the method: as §1
# [28] = target: GlcA(b1-6)Gal
# Summary of the method: as §1
# [29] = target: GlcNAc(a1-3)Gal(b1-4)GlcNAc
# Summary of the method: as §1
# [30] = target: GlcNAc(a1-4)Gal(b1-3)GlcNAc
# Summary of the method: as §1
# [31] = target: GlcNAc(a1-4)Gal(b1-4)GalNAc
# Summary of the method: as §1
# [32] = target: GlcNAc(a1-4)Gal(b1-4)GlcNAc
# Summary of the method: as §1
# [33] = target: GlcNAc(a1-4)Gal(b1-4)GlcNAc(b1-3)Gal(b1-4)Glc
# Summary of the method: as §1
# [34] = target: GlcNAc(a1-4)Gal(b1-4)GlcNAc(b1-3)Gal(b1-4)GlcNAc
# Summary of the method: as §1
# [35] = target: GlcNAc(a1-4)Gal(b1-4)GlcNAc(b1-3)Gal(b1-4)GlcNAc(b1-3)Gal(b1-4)GlcNAc
# Summary of the method: as §1
# [36] = target: GlcNAc(a1-4)Gal(b1-4)GlcNAc(b1-3)Gal(b1-4)[Fuc(a1-3)]GlcNAc(b1-3)Gal(b1-4)[Fuc(a1-3)]GlcNAc
# Summary of the method: as §1
# [37] = target: GlcNAc(a1-6)Gal(b1-4)GlcNAc
# Summary of the method: as §1
binder,measurement,setting,value
B1,glycan array binding signal (z-score),[1],0.458
same,glycan array binding signal (z-score),[2],1.4
same,glycan array binding signal (z-score),[3],-0.424
same,glycan array binding signal (z-score),[4],0.282
same,glycan array binding signal (z-score),[5],-0.101
same,glycan array binding signal (z-score),[6],0.426
same,glycan array binding signal (z-score),[7],0.429
same,glycan array binding signal (z-score),[8],0.039
same,glycan array binding signal (z-score),[9],1.26
same,glycan array binding signal (z-score),[10],0.659
same,glycan array binding signal (z-score),[11],0.504
same,glycan array binding signal (z-score),[12],-0.839
same,glycan array binding signal (z-score),[13],-0.103
same,glycan array binding signal (z-score),[14],0.769
same,glycan array binding signal (z-score),[15],0.543
same,glycan array binding signal (z-score),[16],-0.136
same,glycan array binding signal (z-score),[17],-0.513
same,glycan array binding signal (z-score),[18],-0.167
same,glycan array binding signal (z-score),[19],0.955
same,glycan array binding signal (z-score),[20],-0.381
same,glycan array binding signal (z-score),[21],4.25
same,glycan array binding signal (z-score),[22],-0.618
same,glycan array binding signal (z-score),[23],0.502
same,glycan array binding signal (z-score),[24],-0.218
same,glycan array binding signal (z-score),[25],0.346
same,glycan array binding signal (z-score),[26],0.058
same,glycan array binding signal (z-score),[27],-0.727
same,glycan array binding signal (z-score),[28],-0.725
same,glycan array binding signal (z-score),[29],0.046
same,glycan array binding signal (z-score),[30],0.414
same,glycan array binding signal (z-score),[31],0.489
same,glycan array binding signal (z-score),[32],0.438
same,glycan array binding signal (z-score),[33],-0.257
same,glycan array binding signal (z-score),[34],-0.373
same,glycan array binding signal (z-score),[35],-1.06
same,glycan array binding signal (z-score),[36],3.7
same,glycan array binding signal (z-score),[37],-0.037

# 2 records picked at random from the list so far, as already listed:
binder,measurement,setting,value
B1,glycan array binding signal (z-score),[28],-0.725
same,glycan array binding signal (z-score),[7],0.429
